Many values rest on one well or one pass, so single values are uncertain.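 All cells are established human bladder cancer lines, one derived from a patient-derived xenograft. A luminescent ATP assay measured viability as percent inhibition relative to vehicle across seven dilutions. The paper rates scores above 59 very active, 30–59 active, 21–29 semi-active, 9–20 low active, below 9 inactive.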
Tests used:
Assay in all cases: drug sensitivity score DSS3 (score 0-100); higher = more sensitive; extreme values may be limits of the assay
Conditions in all cases: culture: 3D, ultra-low attachment; treatment time: 5 days
[1] = tested on: UM-UC-18
[2] = tested on: UM-UC-15
[3] = tested on: UM-UC-14
[4] = tested on: BC8149
[5] = tested on: 5637
[6] = tested on: T-24
[7] = tested on: TCCSUP
[8] = tested on: UM-UC-3
[9] = tested on: UM-UC-12
[10] = tested on: UM-UC-1
[11] = tested on: J82
[12] = tested on: UM-UC-9
[13] = tested on: UM-UC-5
[14] = tested on: UM-UC-6
[15] = tested on: SW780
[16] = tested on: SCaBER
[17] = tested on: UM-UC-17

SMILES	drug sensitivity score DSS3 [1]	drug sensitivity score DSS3 [2]	drug sensitivity score DSS3 [3]	drug sensitivity score DSS3 [4]	drug sensitivity score DSS3 [5]	drug sensitivity score DSS3 [6]	drug sensitivity score DSS3 [7]	drug sensitivity score DSS3 [8]	drug sensitivity score DSS3 [9]	drug sensitivity score DSS3 [10]	drug sensitivity score DSS3 [11]	drug sensitivity score DSS3 [12]	drug sensitivity score DSS3 [13]	drug sensitivity score DSS3 [14]	drug sensitivity score DSS3 [15]	drug sensitivity score DSS3 [16]	drug sensitivity score DSS3 [17]
O=C(O)c1cc(C(F)(F)F)ccc1N1CC[C@H](OCc2ccccn2)C1 [XEN445] (max dose 10000 nM)	0	0	2.26	5.55	2.8	0.701	8.55	0.109	0	0	0	0	0	1.74e-05	0	0	
COc1cc(N2CCC(N(C)C)CC2)ccc1Nc1ncc(Cl)c(Nc2ccccc2P(C)(C)=O)n1 [ALK-IN-1] (max dose 10000 nM)	0.195	0	5.43	0.188	3.38	33.1	15.5	2.91	1.99	5.45	3.32	0		7.39	16	7.9	0.13
CCn1c(-c2nonc2N)nc2c(C#CC(C)(C)O)ncc(OC[C@H]3CCCNC3)c21 (max dose 10000 nM)	0	0		33.9	44.1	1.44	16.5	7.33	0.389	15.6	0	8.45	6.51	0	0	38.9	0
Cn1cc(-c2ccc3ncc(Cc4ccc5ncccc5c4)n3n2)cn1 [NVP-BVU972] (max dose 10000 nM)	0	0	0	0	0	0.0341	0	0	0	0	0	0.151	0	0	0	0	
Nc1ncnc2c1c(-c1ccc(Cl)cc1)nn2-c1cccc(-c2cnnn2Cc2cccc(-c3ccccc3)c2)c1 [KB SRC 4] (max dose 10000 nM)	34.4	0.895	19.7	14.3	51	0	45	8.43	0	22.9	7.94	0	0.0134	6.66		21.3	34.3
COc1cc2nccc(Oc3ccc(NC(=O)Nc4cc(C)on4)c(Cl)c3)c2cc1OC [Tivozanib (AV-951)] (max dose 10000 nM)	0	3.11		0	0	0	0.27	0	0	0.977	12.6	0	0	0	8.21	0	0.378
CN1CCN(c2nc(C3=C(c4c[nH]c5ccccc45)C(=O)NC3=O)c3ccccc3n2)CC1 [Sotrastaurin] (max dose 10000 nM)	0	0	0	0	0	0	0	0	0	0	0	0	0	0	0	0	
Nc1nc2c(cnn2CCc2ccccc2)c2nc(-c3ccco3)nn12 (max dose 10000 nM)	0	0	16.3	0	5.62	15.9	0	0	0	0	0.684	0	0		0	0	0
Cc1ccc(C(=O)Nc2ccc(CN3CCN(C)CC3)c(C(F)(F)F)c2)cc1C#Cc1cnc2cccnn12 (max dose 10000 nM)		0	6.19	5.08	8.34	17.7	23.2	0	10.3	3.27	6.34	3.78	0	2.51	0	6.34	0
CCOC(=O)c1ccc(N2NC(=O)C(=Cc3ccc([N+](=O)[O-])o3)C2=O)cc1 [PYR-41] (max dose 10000 nM)	0	0	0	0	0	0	0.0503	0	0	0.107	0	0	0		0	0	0
O=S(=O)(c1ccccc1)c1cnc2c(N3CCNCC3)cccc2c1 (max dose 10000 nM)	25.2	0	1.14	0	13.6	0	1.51	5.92	8.02	2.58	0	3.49		0.794	3.13	5.97	0
CC#C[C@]1(O)CC[C@H]2[C@@H]3CCC4=CC(=O)CCC4=C3[C@@H](c3ccc(N(C)C)cc3)C[C@@]21C [mifepristone] (max dose 10000 nM)	0	0	0	0.000864	0	0	0	0	0	0	0	0		0	0	0	0

From the supplement of paper PMC7646827
